Results on 27 compounds are retold here after the supplement of paper PMC10735217.

The test relates to HEK293A TEAD-LUC reporter. Description: TEAD-luciferase reporter activity (YAP activation), robust Z score vs plate; higher = stronger YAP/TEAD activation. As to conditions: 24 h.

Counter-ions that a name gives are not always drawn. The list shows a part of the results. Single values are uncertain here, since repeats match poorly.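 The human kidney-derived cells carry a stably integrated construct of eight TEAD-binding elements driving luciferase, read by luminescence in a drug-repurposing library screen. A compound counts as a hit when its signal is more than five robust Z scores above the plate mean.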

For the compound `C/C(O)=C/C(C)=N\CC/N=C(C)/C=C(\C)O` [ligand of CTC-96], the TEAD-luciferase reporter activity (compound concentration: 2 uM) was inactive: 1.98.
With `C/C(O)=C/C(C)=N\CC/N=C(C)/C=C(\C)O`, the TEAD-luciferase reporter activity (compound concentration: 200 nM) is inactive: -0.565 and the TEAD-luciferase reporter activity (compound concentration: 10 uM) was inactive: -1.16.
For `Nc1ccn([C@@H]2CS[C@H](CO)O2)c(=O)n1` the same measures were inactive: -1.3 and inactive: -0.447.
As to `Nc1ccn([C@@H]2CS[C@H](CO)O2)c(=O)n1` [lamivudine], the TEAD-luciferase reporter activity (compound concentration: 2 uM) was inactive: -0.728.
On to `CC(C)c1cc(-c2ccc(F)c3ccccc23)nc(N)n1`, for which the TEAD-luciferase reporter activity is inactive: 4.42 (compound concentration: 200 nM), inactive: -0.763 (compound concentration: 2 uM) and inactive: -2.05 (compound concentration: 10 uM).
For `Nc1nc(OCc2cc(Br)cs2)c2nc[nH]c2n1` [Lomeguatrib] the same measures were inactive: -2.49, inactive: 0.138 and inactive: 1.34.
Taken in the same sequence, the figures for `CCCCOC(=O)CS(=O)c1nc2cccnc2s1` (stereo unspecified) were inactive: 0.947, inactive: -1.6 and inactive: 0.0309.
Taken in the same sequence, the figures for `CCOc1ccccc1-c1nc(-c2ccccc2)c(-c2ccccc2)[nH]1` were inactive: 0.0748, inactive: 0.0329 and active: 5.06.
As for `O=C([O-])CC([S][Au])C(=O)[O-]` (stereo unspecified) [Aurothiomalate disodium], the TEAD-luciferase reporter activity reads like this: (compound concentration: 200 nM) inactive: -1.16; (compound concentration: 2 uM) inactive: -1.64; (compound concentration: 10 uM) inactive: 0.161.
`C/C=C1\C(=O)C[C@H]2[C@@H]3CCC4=CC(=O)CCC4(C)[C@H]3CCC12C` (stereo partly specified) [(Z)-Guggulsterone]: the TEAD-luciferase reporter activity is, setting by setting: (compound concentration: 200 nM) inactive: 0.228; (compound concentration: 2 uM) inactive: 1.6; (compound concentration: 10 uM) inactive: 0.227.
On to `Nc1nc(O)c2nc(CNc3ccc(C(=O)N[C@@H](CCC(=O)O)C(=O)O)cc3)cnc2n1` [Folic acid], for which the TEAD-luciferase reporter activity (compound concentration: 2 uM) was inactive: 0.496.
On to `Nc1nc(O)c2nc(CNc3ccc(C(=O)N[C@@H](CCC(=O)O)C(=O)O)cc3)cnc2n1`, for which the TEAD-luciferase reporter activity reads like this: (compound concentration: 200 nM) inactive: -1.26; (compound concentration: 10 uM) inactive: -2.07.
Take `Nc1ccn([C@@H]2O[C@H](COP(=O)(O)O)[C@@H](O)[C@H]2O)c(=O)n1`: the TEAD-luciferase reporter activity by setting is: (compound concentration: 200 nM) inactive: -0.564; (compound concentration: 10 uM) inactive: 2.1.
As to `Cn1cnc2c(NC3C[C@@H]4CC[C@H]3C4)ncnc21` (stereo partly specified), the TEAD-luciferase reporter activity by setting is: (compound concentration: 200 nM) inactive: -0.106; (compound concentration: 2 uM) inactive: -0.351; (compound concentration: 10 uM) inactive: 0.355.
As for `O=C1c2ccccc2CN1C1CCN(CC2CC2)CC1`, the TEAD-luciferase reporter activity (compound concentration: 200 nM) is inactive: 0.161 and the TEAD-luciferase reporter activity (compound concentration: 10 uM) was inactive: 3.87.
Take `Cc1ncc([N+](=O)[O-])n1CCOC(=O)c1ccccc1` [Benzoyl Metronidazole]: the TEAD-luciferase reporter activity was inactive: 1 (compound concentration: 200 nM), inactive: -1.25 (compound concentration: 2 uM) and inactive: -0.546 (compound concentration: 10 uM).
For `Cc1nsc(-c2nnc3n2CCN(C(=O)c2ccc(F)cc2)[C@@H]3C)n1` the same measures were inactive: -1.45, inactive: 0.0407 and inactive: 1.56.
For `CSCCOC(=O)C1=C(C)NC(C)=C(C(=O)OCCSC)C1c1ccccc1[N+](=O)[O-]` the same measures were inactive: 0.255, inactive: -0.215 and inactive: 1.15.
Taken in the same sequence, the figures for `Nc1cccc(CN2C(=O)N(Cc3cccc(N)c3)[C@H](Cc3ccccc3)[C@H](O)[C@@H](O)[C@H]2Cc2ccccc2)c1` were inactive: -0.476, inactive: -0.504 and inactive: 3.45.
With `CC(C)=CCC/C(C)=C/CC/C(C)=C/CC[C@]1(C)CCc2cc(O)cc(C)c2O1` [delta-Tocotrienol], the TEAD-luciferase reporter activity (compound concentration: 200 nM) was inactive: 0.605, the TEAD-luciferase reporter activity (compound concentration: 2 uM) was inactive: -0.808 and the TEAD-luciferase reporter activity (compound concentration: 10 uM) is inactive: -0.457.
For `Cn1cc(-c2cc3c(N4CCN(c5ncc(C(C)(O)c6ccc(F)cc6)cn5)CC4)ncnn3c2)cn1` (stereo unspecified) [analog of BLU-285] the same measures were inactive: -1.51, inactive: -1.39 and inactive: -0.985.
For `Cc1cccc(C)c1NC(=O)NC1=CCCN1C` [Xilobam] the same measures were inactive: -1.12, inactive: -0.321 and inactive: 0.441.
For `CC(=O)OCC(=O)[C@@]1(O)CC[C@H]2[C@@H]3CCC4=CC(=O)CC[C@]4(C)[C@H]3C(=O)C[C@@]21C`, the TEAD-luciferase reporter activity runs as follows: (compound concentration: 200 nM) inactive: 0.312; (compound concentration: 10 uM) inactive: 0.955.
For the compound `CC(=O)OCC(=O)[C@@]1(O)CC[C@H]2[C@@H]3CCC4=CC(=O)CC[C@]4(C)[C@H]3C(=O)C[C@@]21C` [Cortisone acetate], the TEAD-luciferase reporter activity (compound concentration: 2 uM) was inactive: 0.367.
Consider `CCCCCCCCCCNCCN[C@@]1(C)C[C@H](O[C@H]2[C@H](Oc3c4cc5cc3Oc3ccc(cc3Cl)[C@@H](O)[C@@H](NC(=O)[C@@H](CC(C)C)NC)C(=O)N[C@@H](CC(N)=O)C(=O)N[C@H]5C(=O)N[C@H]3C(=O)N[C@H](C(=O)N[C@H](C(=O)O)c5cc(O)c(CNCP(=O)(O)O)c(O)c5-c5cc3ccc5O)[C@H](O)c3ccc(c(Cl)c3)O4)O[C@H](CO)[C@@H](O)[C@@H]2O)O[C@@H](C)[C@H]1O` [Telavancin HCl], for which the TEAD-luciferase reporter activity is, setting by setting: (compound concentration: 200 nM) inactive: -1.09; (compound concentration: 10 uM) inactive: 0.323.
On to `CCOC(=O)Cc1csc(NC(=O)c2cn(C)c3ccccc23)n1`, for which the TEAD-luciferase reporter activity reads like this: (compound concentration: 200 nM) inactive: -0.263; (compound concentration: 2 uM) inactive: 0.424; (compound concentration: 10 uM) inactive: 1.38.
For `C/C=C(\C)C(=O)OC1CC2C(CC=C3CC(OC4CC(OC)C(OC5CC(OC)C(OC6CC(OC)C(OC7CC(OC)C(OC8CC(OC)C(OC9OC(CO)C(O)C(O)C9O)C(C)O8)C(C)O7)C(C)O6)C(C)O5)C(C)O4)CCC32C)C2(O)CCC(C(C)=O)C12C` (stereo unspecified) the same measures were inactive: -0.642, inactive: 2.37 and inactive: 0.415.
